# Assay results taken from article PMC8875441.
# Sequences of proteins named here, by UniProt entry; tags and fusion partners are left off.
# UniProt Q61879: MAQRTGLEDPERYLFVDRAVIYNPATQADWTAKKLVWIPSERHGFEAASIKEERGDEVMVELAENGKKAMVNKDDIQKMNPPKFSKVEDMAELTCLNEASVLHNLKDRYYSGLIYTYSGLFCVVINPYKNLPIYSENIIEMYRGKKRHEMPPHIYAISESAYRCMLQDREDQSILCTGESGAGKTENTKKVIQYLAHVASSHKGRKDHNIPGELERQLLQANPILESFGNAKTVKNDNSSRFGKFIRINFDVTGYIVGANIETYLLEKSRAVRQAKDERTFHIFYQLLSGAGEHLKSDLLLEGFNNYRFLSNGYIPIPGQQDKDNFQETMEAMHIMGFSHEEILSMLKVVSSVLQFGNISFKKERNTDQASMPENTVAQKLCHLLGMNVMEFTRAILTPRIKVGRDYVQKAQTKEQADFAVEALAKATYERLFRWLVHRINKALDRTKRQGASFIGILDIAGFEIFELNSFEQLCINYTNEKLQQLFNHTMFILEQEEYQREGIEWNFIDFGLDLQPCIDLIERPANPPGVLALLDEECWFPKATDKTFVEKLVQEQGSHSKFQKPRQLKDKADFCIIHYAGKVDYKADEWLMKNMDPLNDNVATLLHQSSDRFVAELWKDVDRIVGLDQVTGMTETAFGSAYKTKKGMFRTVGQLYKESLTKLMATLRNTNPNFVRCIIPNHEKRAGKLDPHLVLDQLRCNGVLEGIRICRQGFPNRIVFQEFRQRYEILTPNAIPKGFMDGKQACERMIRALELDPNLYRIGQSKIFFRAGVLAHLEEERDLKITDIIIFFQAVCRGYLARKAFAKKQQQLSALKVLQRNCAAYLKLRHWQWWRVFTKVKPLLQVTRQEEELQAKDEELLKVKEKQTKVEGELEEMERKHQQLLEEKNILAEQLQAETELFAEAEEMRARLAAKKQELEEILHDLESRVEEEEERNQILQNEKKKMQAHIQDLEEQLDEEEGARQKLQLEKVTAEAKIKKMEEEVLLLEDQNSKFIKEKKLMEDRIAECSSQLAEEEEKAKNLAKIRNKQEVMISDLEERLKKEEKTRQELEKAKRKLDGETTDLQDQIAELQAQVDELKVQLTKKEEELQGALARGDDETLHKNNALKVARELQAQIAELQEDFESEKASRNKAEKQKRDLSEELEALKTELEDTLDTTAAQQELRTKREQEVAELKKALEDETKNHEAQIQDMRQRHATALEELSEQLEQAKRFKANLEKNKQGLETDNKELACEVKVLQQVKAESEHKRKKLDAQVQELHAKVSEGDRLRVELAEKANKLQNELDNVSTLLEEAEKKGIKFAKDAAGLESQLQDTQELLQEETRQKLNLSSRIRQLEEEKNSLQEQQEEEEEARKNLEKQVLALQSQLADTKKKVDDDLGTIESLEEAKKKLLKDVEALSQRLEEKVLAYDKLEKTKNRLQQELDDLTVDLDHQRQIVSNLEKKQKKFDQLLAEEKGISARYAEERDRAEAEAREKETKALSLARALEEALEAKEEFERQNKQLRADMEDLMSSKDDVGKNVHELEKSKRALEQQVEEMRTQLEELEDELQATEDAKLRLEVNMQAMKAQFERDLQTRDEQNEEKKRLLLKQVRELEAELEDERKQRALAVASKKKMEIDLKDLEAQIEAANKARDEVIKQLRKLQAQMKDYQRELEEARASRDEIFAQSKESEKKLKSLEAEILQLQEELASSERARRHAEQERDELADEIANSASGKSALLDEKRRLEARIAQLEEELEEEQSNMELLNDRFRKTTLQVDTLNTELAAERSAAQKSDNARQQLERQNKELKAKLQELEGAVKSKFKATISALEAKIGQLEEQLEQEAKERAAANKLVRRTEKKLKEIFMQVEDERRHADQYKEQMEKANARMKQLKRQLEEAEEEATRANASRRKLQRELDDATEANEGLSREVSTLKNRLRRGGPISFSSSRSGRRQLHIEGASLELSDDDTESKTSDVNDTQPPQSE
# No constants are given. Whether binding was seen depends on the method and setting. In cells and extracts the contact can be indirect. Some entries that bind do so weakly or less than the wild type. Tags and fused reporters may be left off the sequences shown.
# Key:
# [1] = target: T1, insulin-dependent glucose transporter 4 (GLUT4) (mouse (endogenous in C57bl/6J visceral adipose tissue and in 3T3-L1)) (UniProt P14142); assay: co-IP; murine visceral adipose tissue preparations; immunoprecipitation with anti-GLUT4 antibody and Protein A/G Plus Agarose overnight; western blot for MYH10
# T1 sequence: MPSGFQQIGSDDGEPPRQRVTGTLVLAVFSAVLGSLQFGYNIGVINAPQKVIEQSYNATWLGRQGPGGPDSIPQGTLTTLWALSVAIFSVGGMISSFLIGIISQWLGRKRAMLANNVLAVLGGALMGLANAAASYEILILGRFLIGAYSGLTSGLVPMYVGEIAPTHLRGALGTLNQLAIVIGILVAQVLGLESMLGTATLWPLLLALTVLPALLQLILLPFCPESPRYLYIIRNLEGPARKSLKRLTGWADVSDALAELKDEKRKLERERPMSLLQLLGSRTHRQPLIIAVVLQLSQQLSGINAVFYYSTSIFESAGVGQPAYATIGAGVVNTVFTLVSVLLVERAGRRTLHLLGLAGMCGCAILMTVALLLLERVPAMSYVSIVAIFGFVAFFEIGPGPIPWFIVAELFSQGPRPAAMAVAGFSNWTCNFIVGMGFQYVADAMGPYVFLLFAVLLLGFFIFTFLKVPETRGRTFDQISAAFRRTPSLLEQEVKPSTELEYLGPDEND
# [2] = target: T1, insulin-dependent glucose transporter 4 (GLUT4) (mouse (endogenous in C57bl/6J visceral adipose tissue and in 3T3-L1)); assay: co-IP; differentiated 3T3-L1 whole-cell lysates (200 µg; 50 mM Tris pH 7.5, 150 mM NaCl, 1 mM EDTA, 1% NP-40); immunoprecipitation with anti-GLUT4 antibody and Protein A/G Plus Agarose overnight; western blot for MYH10; also done +/- 30 min insulin induction (more complex after insulin) and with or without 50 µM PKCζ pseudo-substrate inhibitor (fewer complexes with inhibitor)
substance,measurement,setting,value
non-muscle myosin 10 (MYH10) (from UniProt Q61879 1-1976),binding,[1],binds
same,binding,[2],binds
